PubChem BioAssay AID1259405 – NCATS | 2018
In all, the deposit lists about 50,000 reagents; below is a random part of them. About 4,000 of all reagents (8%) count as active. 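Mouse siRNA library applied to hamster cells; one well for each siRNA.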

Purpose: 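Mouse-designed siRNAs used to find CHO productivity engineering targets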 (primary screen)
System: Chinese hamster CHO-K1 ovary cells with stable secreted eGFP expression
Knock-down reagent: single siRNA against mouse genes, 0.8 pmol siRNA per well (2 µl of 400 nM stock)
Time to read-out: 3 days
Measured: 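Percent of the per-plate non-targeting control median for intracellular GFP per well by laser scanning cytometry and for cell viability by ATP luminescence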
Scale: GFP, % of control: higher = more GFP per well, higher productivity; viability (ATP), % of control: higher = more viable cells (more ATP)
Active means: 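a knock-down is called active if GFP reaches 120% or more of non-targeting control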

The first 5 records, to show the layout:
no.	Gene	PubChem SID	GFP, % of control	viability (ATP), % of control	Outcome
1	Klc2 (kinesin light chain 2)	SID363572241	101	78.4	inactive
2	Klc2 (kinesin light chain 2)	SID363574001	97.4	57	inactive
3	Mzf1 (myeloid zinc finger 1)	SID363572333	30.8	47.8	inactive
4	Mzf1 (myeloid zinc finger 1)	SID363574093	55.2	95.9	inactive
5	Or5c1 (olfactory receptor family 5 subfamily C member 1)	SID363544591	54.8	40.1	inactive

Main list, from the first entry:
no.	Gene	PubChem SID	GFP, % of control	viability (ATP), % of control	Outcome
1	Klc2 (kinesin light chain 2)	SID363572241	101	78.4	inactive
2	Klc2 (kinesin light chain 2)	SID363574001	97.4	57	inactive
3	Mzf1 (myeloid zinc finger 1)	SID363572333	30.8	47.8	inactive
4	Mzf1 (myeloid zinc finger 1)	SID363574093	55.2	95.9	inactive
5	Or5c1 (olfactory receptor family 5 subfamily C member 1)	SID363544591	54.8	40.1	inactive
6	Or5c1 (olfactory receptor family 5 subfamily C member 1)	SID363550919	84.1	85.4	inactive
7	Or5c1 (olfactory receptor family 5 subfamily C member 1)	SID363557468	103	21.1	inactive
8	Asap3 (ArfGAP with SH3 domain, ankyrin repeat and PH domain 3)	SID363545899	90.3	95.2	inactive
9	Asap3 (ArfGAP with SH3 domain, ankyrin repeat and PH domain 3)	SID363549412	79.5	86.9	inactive
10	Asap3 (ArfGAP with SH3 domain, ankyrin repeat and PH domain 3)	SID363563218	69.5	72.1	inactive
11	Faap24 (Fanconi anemia core complex associated protein 24)	SID363546942	89.8	83.3	inactive
12	Faap24 (Fanconi anemia core complex associated protein 24)	SID363549754	64.6	53.6	inactive
13	Faap24 (Fanconi anemia core complex associated protein 24)	SID363587808	123	136	active
14	Dpysl2 (dihydropyrimidinase-like 2)	SID363569960	136	111	active
15	Dpysl2 (dihydropyrimidinase-like 2)	SID363577000	90.5	92.9	inactive
16	Dpysl2 (dihydropyrimidinase-like 2)	SID363578408	90.4	94.1	inactive
17	Slc25a30	SID363545739	74.6	64.8	inactive
18	Slc25a30	SID363549252	140	112	active
19	Slc25a30	SID363563058	85.2	63.5	inactive
20	Ints15 (integrator complex subunit 15)	SID363539763	67.5	88	inactive
21	Ints15 (integrator complex subunit 15)	SID363561064	38.7	35.5	inactive
22	Ints15 (integrator complex subunit 15)	SID363565154	112	60.1	inactive
23	Sf3a1 (splicing factor 3a, subunit 1)	SID363546081	60	49.7	inactive
24	Sf3a1 (splicing factor 3a, subunit 1)	SID363549594	73.4	65.2	inactive
25	Sf3a1 (splicing factor 3a, subunit 1)	SID363563400	108	72.9	inactive
26	Birc6 (baculoviral IAP repeat-containing 6)	SID363572955	81.4	102	inactive
27	Birc6 (baculoviral IAP repeat-containing 6)	SID363577531	108	73	inactive
28	Birc6 (baculoviral IAP repeat-containing 6)	SID363581051	61.2	42.1	inactive
29	Polr1c (polymerase (RNA) I polypeptide C)	SID363545709	58	64.2	inactive
30	Polr1c (polymerase (RNA) I polypeptide C)	SID363549222	62.8	86.4	inactive
31	Polr1c (polymerase (RNA) I polypeptide C)	SID363563028	29.9	49.7	inactive
32	Zfp2 (zinc finger protein 2)	SID363573846	59.9	77	inactive
33	Zfp2 (zinc finger protein 2)	SID363581590	88.7	108	inactive
34	Zfp2 (zinc finger protein 2)	SID363584054	57.2	95.5	inactive
35	Pclaf (PCNA clamp associated factor)	SID363543836	40.8	65.5	inactive
36	Pclaf (PCNA clamp associated factor)	SID363551572	60.8	60.2	inactive
37	Pclaf (PCNA clamp associated factor)	SID363559177	61.7	59.8	inactive
38	Ces2g (carboxylesterase 2G)	SID363545713	99.7	124	inactive
39	Ces2g (carboxylesterase 2G)	SID363549226	58.2	69.3	inactive
40	Ces2g (carboxylesterase 2G)	SID363563032	43.7	57.9	inactive
41	Tmem74 (transmembrane protein 74)	SID363546736	89.2	69.3	inactive
42	Tmem74 (transmembrane protein 74)	SID363548492	75.2	79.1	inactive
43	Tmem74 (transmembrane protein 74)	SID363560670	118	59.5	inactive
44	Nrsn1 (neurensin 1)	SID363556860	100	63.7	inactive
45	Nrsn1 (neurensin 1)	SID363563764	82.4	76.6	inactive
46	Nrsn1 (neurensin 1)	SID363587310	69.4	79.4	inactive
47	Ubtf (upstream binding transcription factor, RNA polymerase I)	SID363569203	138	110	active
48	Ubtf (upstream binding transcription factor, RNA polymerase I)	SID363583635	91.6	68.8	inactive
49	Nrdc (nardilysin convertase)	SID363569736	111	88.1	inactive
50	Nrdc (nardilysin convertase)	SID363576776	138	104	active
51	Nrdc (nardilysin convertase)	SID363578184	75.9	75.5	inactive
52	Or52l1 (olfactory receptor family 52 subfamily L member 1)	SID363554231	85.1	83.6	inactive
53	Or52l1 (olfactory receptor family 52 subfamily L member 1)	SID363567678	123	58	active
54	Or52l1 (olfactory receptor family 52 subfamily L member 1)	SID363585035	81.2	84.7	inactive
55	Psmd6 (proteasome (prosome, macropain) 26S subunit, non-ATPase, 6)	SID363543863	46.1	13.5	inactive
56	Psmd6 (proteasome (prosome, macropain) 26S subunit, non-ATPase, 6)	SID363551599	85.2	74.4	inactive
57	Psmd6 (proteasome (prosome, macropain) 26S subunit, non-ATPase, 6)	SID363559204	36.7	37.4	inactive
58	Tnrc18 (trinucleotide repeat containing 18)	SID363540702	64.7	114	inactive
59	Tnrc18 (trinucleotide repeat containing 18)	SID363543153	69.8	97.1	inactive
60	Tnrc18 (trinucleotide repeat containing 18)	SID363552646	56	43.9	inactive
61	Cstb (cystatin B)	SID363573014	66	52.8	inactive
62	Cstb (cystatin B)	SID363577590	82	45.5	inactive
63	Cstb (cystatin B)	SID363581110	97.1	87.3	inactive
64	Epb41 (erythrocyte membrane protein band 4.1)	SID363540051	58.3	71.2	inactive
65	Epb41 (erythrocyte membrane protein band 4.1)	SID363561352	93.6	75.4	inactive
66	Epb41 (erythrocyte membrane protein band 4.1)	SID363564388	77.5	88.9	inactive
67	Arhgef11 (Rho guanine nucleotide exchange factor 11)	SID363570524	90.8	110	inactive
68	Arhgef11 (Rho guanine nucleotide exchange factor 11)	SID363579324	98.3	156	inactive
69	Arhgef11 (Rho guanine nucleotide exchange factor 11)	SID363583196	95.6	96.1	inactive
70	Cyp2c55 (cytochrome P450, family 2, subfamily c, polypeptide 55)	SID363573006	94.7	104	inactive
71	Cyp2c55 (cytochrome P450, family 2, subfamily c, polypeptide 55)	SID363577582	82	69.7	inactive
72	Cyp2c55 (cytochrome P450, family 2, subfamily c, polypeptide 55)	SID363581102	109	52.9	inactive
73	Mmp9 (matrix metallopeptidase 9)	SID363582454	70	111	inactive
74	Mmp9 (matrix metallopeptidase 9)	SID363584214	81.8	84.1	inactive
75	Elp3 (elongator acetyltransferase complex subunit 3)	SID363570599	106	105	inactive
76	Elp3 (elongator acetyltransferase complex subunit 3)	SID363579399	85.7	147	inactive
77	Elp3 (elongator acetyltransferase complex subunit 3)	SID363583271	60.3	102	inactive
78	Rxra (retinoid X receptor alpha)	SID363571144	29.3	37.6	inactive
79	Rxra (retinoid X receptor alpha)	SID363571496	97.6	78	inactive
80	Rxra (retinoid X receptor alpha)	SID363571848	81.8	86.1	inactive
81	Slc39a8	SID363574653	104	101	inactive
82	Slc39a8	SID363575709	158	85.1	active
83	Slc39a8	SID363580285	91.4	77.4	inactive
84	Letm2 (leucine zipper-EF-hand containing transmembrane protein 2)	SID363550299	55.4	76.1	inactive
85	Letm2 (leucine zipper-EF-hand containing transmembrane protein 2)	SID363564808	54.1	72.6	inactive
86	Letm2 (leucine zipper-EF-hand containing transmembrane protein 2)	SID363588353	85.9	99.5	inactive
